In all, about 340,000 compounds went through this assay and about 170 (0.05%) were called active. The inconclusive results got no clear call from the source; some entries with a clear call stand among them for comparison. Calls follow the shape of the dose curve; as a rule, active = well fitted inhibition curve with a large enough effect in the signal ratio, with a control signal flat (not every such curve was filed as active); inconclusive = small, poorly fitted or top-dose-only effect, or effect the other way, or a change in a side signal; inactive = flat fitted curve, though single readings scatter; the % refers to the signal ratio. Where the call is inconclusive, the potency comes from a doubtful curve fit.
Assay: qHTS Assay to Find Inhibitors of Chronic Active B-Cell Receptor Signaling;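 as to activity change, negative = inhibition: plate controls were basal doxycycline-induced cells for no effect and cells given 10 µM MG132 for full effect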
Conditions: ABC-DLBCL IkBa-CBG/CBR reporter, luminescence ratio (green luciferase fused to IkBa over red control in TMD8 lymphoma cells), 4 h; activity change, negative = inhibition: at 46.1 µM (top of the series)
Outline: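 Doxycycline induced both beetle luciferases in TMD8 lymphoma cells; IKK-driven degradation limits the IkappaBalpha-fused green signal, while red luminescence normalises for cell number and nonspecific effects. Compounds tested up to 46 uM, 4 hrs.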
Potency is read from the fitted curve at half-maximal effect.

| Structure (SMILES) | activity change, negative = inhibition | Potency |
| --- | --- | --- |
| N=C1C(c2ccccc2)=C(O)CN1c1ccc2c(c1)OCO2 | inactive: 6.49% | – |
| O=C(O)c1cc(-c2ccc(/C=C3\NC(=O)N(c4ccc(Cl)cc4)C3=O)o2)ccc1Cl | inactive: -16.1% | – |
| COc1ccc(/C=C2\Sc3ccc(C(=O)NC4CC4)cc3N(C)C2=O)cc1OC | – | inconclusive: 25.1 µM [falling, single point] |
| Clc1ccc(CN=C(Nc2ccccc2)NC2CCCCC2)cc1 | inconclusive: -13.8% | – |
| COc1ccc(Cl)cc1Nc1ncnc2c1c(-c1ccccc1)cn2-c1ccccc1 | inactive: -0.307% | – |
| CCN1CCN(c2ccc(S(=O)(=O)N3CCCCC3)cc2NC(=O)c2cccc(OC(F)F)c2)CC1 | inactive: -0.638% | – |
| c1ccc2nc3[nH]cnc3nc2c1 | inconclusive: 9.22% | – |
| COc1ccc(C(=O)COC(=O)c2cncc(Br)c2)cc1 | inconclusive: 1.08% | – |
| CCOc1ccccc1N(CC(=O)N1CCOCC1)S(=O)(=O)c1ccc(SC)cc1 | inconclusive: 16.9% | – |
| O=C(N/N=C/c1cccc(O)c1)c1cc(-c2ccc3c(c2)OCO3)n[nH]1 | inconclusive: -18.4% | – |
| Cc1cc(C)nc(-n2nc(C)c3c(C)c(C)c(C)nc32)n1 | inactive: -11.3% | – |
| Cc1cc2ccccc2n1CCNC(=O)C1CC1 | inactive: 1.88% | – |
| Cc1cc(-c2nnc3n2CCCCC3)c(C)n1-c1ccccc1 | inconclusive: -6.11% | – |
| O=C(CCN1C(=O)c2ccccc2C1=O)NCc1ccc(Cl)cc1 | inactive: 7.71% | – |
| O=C(Nc1ccc(OC(F)F)cc1)c1ncc(Cl)c(Cl)c1Cl | inactive: -0.566% | – |
| CCCCNc1nc2ccccc2[nH]1 | inconclusive: -14.7% | – |
| COc1ccc(CNC(=O)c2[nH]c(C)c(C(C)=O)c2C)cc1 | inconclusive: -2.71% | – |
| Cc1cc(C)c2c(c1)/C(=c1/sc3n(c1=O)CN(c1ccccc1)CN=3)C(=O)N2 | inactive: 6.41% | – |
| CN(C)CC/C=C1\c2ccccc2CSc2ccccc21 | inconclusive: -11.9% | – |
| CSc1nsc(/C=C/Nc2ccc(F)cc2)c1C#N | inconclusive: -16.2% | – |
| CCOC(=O)c1cc(-c2ccccc2)n(CCC(=O)Nc2ccc(Cl)c(C(F)(F)F)c2)c1C | inconclusive: -18.6% | – |
| Cc1ccc(OCCNC(=O)c2ccc3ccccc3n2)cc1 | inconclusive: 13% | – |

| Structure (SMILES) | activity change, negative = inhibition | Potency |
| --- | --- | --- |
| Cc1ccc(C#N)c(SCc2ccccc2F)n1 | inconclusive: -0.482% | – |
| Cc1ccc(S(=O)(=O)N(C(=O)c2ccncc2)c2ccc(OC(=O)c3ccncc3)c3ccccc23)c(C)c1 | – | inconclusive: 14.6 µM [falling, single point] |
| Cc1cccc(N2CCN(C(=O)c3cccc(S(=O)(=O)N4CCCCC4)c3)CC2)c1C | inactive: 1.74% | – |
| CS(=O)(=O)C1=NN2C(=N)/C(=C\c3ccc(OCCOc4ccccc4)cc3)C(=O)N=C2S1 | inconclusive: 6.24% | – |
| COc1ccc(C(NC(=O)/C=C/c2ccco2)c2ccc(OC)c(OC)c2)cc1 (stereo not given) | – | inconclusive: 20.6 µM [falling, partial curve, poor fit] |
| COc1cc(/C=C2\SC(=S)N(CC(=O)NC(C)(C)C)C2=O)cc(OC)c1OC | – | inconclusive: 12.6 µM [falling, single point] |
| Cc1cc(C)n(Cc2ccccc2F)c(=O)c1C#N | inconclusive: 1.05% | – |
| COc1ccccc1CNC(=O)c1ccc2nc(-c3ccccc3)c(-c3ccccc3)nc2c1 | inactive: -0.145% | – |
| C/C(NCCN1CCOCC1)=C(\C#N)C(N)=O | – | inconclusive: 18.4 µM [rising, partial curve, poor fit] |
| CCOc1ccc(/C=N/NC(=O)c2[nH]c3ccc(C)cc3c2C)cc1 | inconclusive: -0.717% | – |
| CCN1C(=O)/C(=C2/Sc3ccc(OC)cc3N2C)SC1=Nc1cccc(O)c1 | inactive: 7.44% | – |
| COc1ccccc1-c1nnc(C2CCN(S(=O)(=O)c3ccc([N+](=O)[O-])cc3)CC2)o1 | inactive: 4.22% | – |
| O=S(=O)(c1ccc(F)cc1)N1CCCC1 | inconclusive: 3.77% | – |
| COc1ccc(C2=NC(C)(C)Cc3cc(OC)c(OC)cc32)cc1 | inactive: -14.1% | – |
| O=C(CN1CCCC1)N/N=C/c1ccc(-c2cccc(Cl)c2)o1 | inactive: -5.09% | – |
| COc1ccccc1C1CC(=O)Nc2cc3c(cc21)OCCO3 (stereo not given) | – | active: 23.1 µM |
| CCn1cnc2cc(NCc3cccs3)ccc21 | – | inconclusive: 22.4 µM [falling, single point] |
| O=C(NC12CC3CC(CC(C3)C1)C2)N1CCN(C2CCCCC2)CC1 | inactive: 11.7% | – |
| Cc1cccc(NC(=O)C2CCCN(C(=O)Nc3ccccc3)C2)c1C (stereo not given) | inconclusive: 9.59% | – |
| O=C(Nc1ccc(Cl)cc1)c1cc2nc(-c3ccco3)cc(C(F)(F)F)n2n1 | inconclusive: 14.7% | – |
| CN(C)c1ccc(C(=S)N2CCCC2)cc1Br | inconclusive: 2.51% | – |
| O=C1C=C(c2cccs2)CC(c2cccs2)C1n1cnc([N+](=O)[O-])c1 (stereo not given) | inconclusive: 0.822% | – |

| Structure (SMILES) | activity change, negative = inhibition | Potency |
| --- | --- | --- |
| Nc1ncnc2c1ncn2[C@@H]1O[C@H](CNCc2ccc(OCC(=O)Nc3ccccn3)cc2)[C@@H](O)[C@H]1O | inconclusive: -3.03% | – |
| CC1(C)C(=O)Nc2ccccc2N1C(=O)COC(=O)CSc1ccc(Cl)cc1 | inconclusive: 5.1% | – |
| CCOC(=O)N1CCc2c(sc(NCc3ccc(OC)c(OC)c3OC)c2C(=O)Nc2ccc(OC)cc2OC)C1 | inconclusive: 26.3% | – |
| COc1ccccc1C(=O)NCCC(=O)N1CCN(C(=O)c2ccco2)CC1 | inconclusive: -8.81% | – |
| Cc1c(Cl)cccc1-n1c(SCC(=O)NCc2ccccc2Cl)nnc1-c1ccncc1 | inconclusive: -0.425% | – |
| O=C(CSc1cccc[n+]1[O-])c1ccc(-c2ccccc2)cc1 | – | inconclusive: 31.6 µM [cytotoxic, single point] |
| Clc1ccc(-c2csc(NNC3=NCCCCC3)n2)cc1 | inactive: -3.64% | – |
| O=C(CNC(=O)C(c1ccccc1)c1ccccc1)N/N=C/c1ccc(O)cc1O | inconclusive: 0.547% | – |
| CC1SCC(=NOCc2c(Cl)cccc2Cl)CS1 (stereo not given) | inconclusive: 10.7% | – |
| Cn1c(SCC(=O)NNC(=O)c2ccccc2)nnc1C(F)(F)F | inactive: -7.43% | – |
| COc1ccc([N+](=O)[O-])cc1NC(=O)CCN1CCN(c2ccccc2OC)CC1 | inactive: -0.0176% | – |
| Cc1nc2ccc(F)cc2cc1C(=O)Nc1ccc(Cl)c(Cl)c1 | inconclusive: 0.237% | – |
| CCCOc1ccc(C2C(=O)N(C3CCC(C)CC3)CC(=O)N2CCC2=CCCCC2)cc1OC (stereo not given) | inconclusive: -2.62% | – |
| O=C(Nc1ccccc1)c1cccc(S(=O)(=O)Nc2cccc(F)c2)c1 | inactive: 11.8% | – |
| CC(=O)N/N=C(\N)c1nonc1N | – | inconclusive: 7.08 µM [falling, partial curve] |
| CC(C)c1ccc(C2=C(O)c3ccccc3C(=O)C2=O)cc1 | – | inconclusive: 18.4 µM [falling, single point] |
| CC(C)(Oc1ccc(Cl)cc1)C(=O)NCc1n[nH]c(=O)c2ccccc12 | – | inconclusive: 29.1 µM [falling, single point] |
| CC(=O)/C=C/c1ccccc1Oc1c(F)c(F)nc(F)c1F | – | inconclusive: 25.1 µM [falling, partial curve, poor fit] |
| Cc1c(N2CCCC2)cc2c(c1NC(=O)c1ccccc1Cl)C(C)(C)CC2(C)C | inconclusive: 8.01% | – |
| Cc1nc(C)c(-c2csc(Nc3ccc(S(N)(=O)=O)cc3)n2)s1 | – | inconclusive: 25.1 µM [falling, single point] |
| COC(=O)c1cn(-c2ccccc2)c(=O)c2ccccc12 | inactive: 1.39% | – |
| CCOc1ccccc1-n1c(SCC(=O)NCc2ccco2)nnc1-c1ccncc1 | inconclusive: -11% | – |

17 of these compounds in a different format.
Structure (SMILES) | activity change, negative = inhibition | Potency
Nc1ncnc2c1ncn2[C@@H]1O[C@H](CNCc2ccc(OCC(=O)Nc3ccccn3)cc2)[C@@H](O)[C@H]1O | inconclusive: -3.03% | –
CCOC(=O)N1CCc2c(sc(NCc3ccc(OC)c(OC)c3OC)c2C(=O)Nc2ccc(OC)cc2OC)C1 | inconclusive: 26.3% | –
COc1ccccc1C(=O)NCCC(=O)N1CCN(C(=O)c2ccco2)CC1 | inconclusive: -8.81% | –
O=C(CSc1cccc[n+]1[O-])c1ccc(-c2ccccc2)cc1 | – | inconclusive: 31.6 µM [cytotoxic, single point]
Clc1ccc(-c2csc(NNC3=NCCCCC3)n2)cc1 | inactive: -3.64% | –
CC1SCC(=NOCc2c(Cl)cccc2Cl)CS1 (stereo not given) | inconclusive: 10.7% | –
COc1ccc([N+](=O)[O-])cc1NC(=O)CCN1CCN(c2ccccc2OC)CC1 | inactive: -0.0176% | –
Cc1nc2ccc(F)cc2cc1C(=O)Nc1ccc(Cl)c(Cl)c1 | inconclusive: 0.237% | –
O=C(Nc1ccccc1)c1cccc(S(=O)(=O)Nc2cccc(F)c2)c1 | inactive: 11.8% | –
CC(=O)N/N=C(\N)c1nonc1N | – | inconclusive: 7.08 µM [falling, partial curve]
CC(C)c1ccc(C2=C(O)c3ccccc3C(=O)C2=O)cc1 | – | inconclusive: 18.4 µM [falling, single point]
CC(C)(Oc1ccc(Cl)cc1)C(=O)NCc1n[nH]c(=O)c2ccccc12 | – | inconclusive: 29.1 µM [falling, single point]
CC(=O)/C=C/c1ccccc1Oc1c(F)c(F)nc(F)c1F | – | inconclusive: 25.1 µM [falling, partial curve, poor fit]
Cc1c(N2CCCC2)cc2c(c1NC(=O)c1ccccc1Cl)C(C)(C)CC2(C)C | inconclusive: 8.01% | –
Cc1nc(C)c(-c2csc(Nc3ccc(S(N)(=O)=O)cc3)n2)s1 | – | inconclusive: 25.1 µM [falling, single point]
COC(=O)c1cn(-c2ccccc2)c(=O)c2ccccc12 | inactive: 1.39% | –
CCOc1ccccc1-n1c(SCC(=O)NCc2ccco2)nnc1-c1ccncc1 | inconclusive: -11% | –

(more compounds)

| Structure (SMILES) | activity change, negative = inhibition | Potency |
| --- | --- | --- |
| Cc1nc(-c2ccccc2)sc1-c1nnc(C2CC2)o1 | – | inconclusive: 3.98 µM [rising, full curve, poor fit] |
| O=C(c1ccccc1)c1cc(Cl)ccc1N1C(=O)C=CC1=O | inconclusive: 8.52% | – |
| CCOc1ccc(NC(=S)N(CCCN2CCCC2)Cc2cccn2Cc2ccc(Cl)cc2)cc1 | – | inconclusive: 7.08 µM [falling, partial curve, poor fit] |
| COc1ccc(C=Nc2cccc3c(=O)[nH][nH]c(=O)c23)c2ccccc12 | – | inconclusive: 16.4 µM [falling, partial curve, poor fit] |
| CCN(CC)S(=O)(=O)c1ccc(N2CCOCC2)c(NC(=O)c2ccc(N3CCCC3=O)cc2)c1 | inconclusive: 13.4% | – |
| Cc1n[nH]c(=O)nc1NCCc1ccccc1 | inconclusive: -5.72% | – |
| O=C(CCC(=O)Nc1nnc(C2CCCCC2)s1)NCc1ccc(F)cc1 | inconclusive: 10.2% | – |
| COc1ccccc1C(=O)Nc1nnc(SCC(=O)Nc2ccc3c(c2)oc2ccccc23)s1 | inconclusive: -6.18% | – |
| Cc1c(-c2ccc(O)cc2)nc2nc(-c3ccccc3)c(-c3ccccc3)nn12 | – | inconclusive: 31.6 µM [rising, single point] |
| CCOC(=O)c1c(C)oc2c1c1c(c3ccccc32)OCN(Cc2cccnc2)C1 | inconclusive: 5.24% | – |
| CCOC(=O)c1ccc(NC(=O)CSc2nc3c(c(=O)n2C)SC(C)C3)cc1 (stereo not given) | inconclusive: 1.86% | – |
| O=C1NC(c2ccccn2)Nc2sc3c(c21)CCC3 (stereo not given) | inconclusive: 2.56% | – |
| CC(O)[C@H]1CC[C@H]2[C@@H]3CC[C@H]4C[C@H](O)CC[C@]4(C)[C@H]3[C@H](O)C[C@]12C (stereo not given in full) | inactive: -18.2% | – |
| Nc1ccc(Br)cc1Br | inconclusive: 1.79% | – |
| Cc1ccc(S(=O)(=O)CCC(=O)OCC(=O)N(C)CC(=O)Nc2ccc(F)cc2)cc1 | inconclusive: -25.8% | – |
| COc1cc(/C=N/n2c(-c3ccc4c(c3)NC(=O)CO4)csc2=Nc2cccc(C)c2)ccc1O | inconclusive: -12.6% | – |
| CCOc1ccccc1NC(=O)CN(c1ccc(OC)cc1OC)S(=O)(=O)c1ccccc1[N+](=O)[O-] | inactive: 0.247% | – |
| COc1ccc2c(Cl)c(C(=O)NCC3CCCO3)sc2c1Cl (stereo not given) | inconclusive: 2.53% | – |
| CC(=O)Nc1ccc2c(c1)nc(CCNC(=O)c1ccco1)n2C | inactive: 4.15% | – |

Source: PubChem BioAssay AID493014 (National Center for Advancing Translational Sciences (NCATS), 2011)
